# Assay results as given in article PMC8062120.
# Residue numbers refer to the chain shown, from its start. Names may count otherwise. These are yes or no findings as the source states them, for the method shown. Some results given as binding are weak or reduced against the parent protein; the word gives no strength. For some of these results: Sequences can lack the tags named with a protein.
# T1: Full-length myotilin with N-terminal thioredoxin tag (Trx-MYOT) (human), Q9UBF9
# T1 chain: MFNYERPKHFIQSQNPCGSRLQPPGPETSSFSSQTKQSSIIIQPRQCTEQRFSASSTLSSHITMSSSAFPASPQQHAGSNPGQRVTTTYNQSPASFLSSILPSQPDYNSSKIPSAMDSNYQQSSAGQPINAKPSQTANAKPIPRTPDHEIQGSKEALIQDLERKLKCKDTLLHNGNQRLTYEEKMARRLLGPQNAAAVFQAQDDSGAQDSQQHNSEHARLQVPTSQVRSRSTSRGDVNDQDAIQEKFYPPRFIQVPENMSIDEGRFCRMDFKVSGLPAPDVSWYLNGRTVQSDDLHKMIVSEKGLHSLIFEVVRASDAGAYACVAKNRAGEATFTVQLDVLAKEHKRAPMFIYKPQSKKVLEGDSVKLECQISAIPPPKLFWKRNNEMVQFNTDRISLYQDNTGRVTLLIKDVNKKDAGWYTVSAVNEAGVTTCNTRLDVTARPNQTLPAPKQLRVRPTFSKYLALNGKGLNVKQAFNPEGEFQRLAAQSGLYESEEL
# T2: Myotilin Ig1Ig2^250–444 (Ig1Ig2 tandem) (human), Q9UBF9
# T2 chain: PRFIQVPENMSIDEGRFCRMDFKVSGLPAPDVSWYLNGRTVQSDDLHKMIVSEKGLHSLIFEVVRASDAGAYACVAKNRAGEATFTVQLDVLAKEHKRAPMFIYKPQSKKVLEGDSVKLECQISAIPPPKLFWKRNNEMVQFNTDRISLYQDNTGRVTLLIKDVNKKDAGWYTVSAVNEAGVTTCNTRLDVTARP
# B1: Myotilin Ig1Ig2^(220–452 R405K) (domain or fragment, UniProt Q9UBF9 220-452)
# chain: LQVPTSQVRSRSTSRGDVNDQDAIQEKFYPPRFIQVPENMSIDEGRFCRMDFKVSGLPAPDVSWYLNGRTVQSDDLHKMIVSEKGLHSLIFEVVRASDAGAYACVAKNRAGEATFTVQLDVLAKEHKRAPMFIYKPQSKKVLEGDSVKLECQISAIPPPKLFWKRNNEMVQFNTDRISLYQDNTGKVTLLIKDVNKKDAGWYTVSAVNEAGVTTCNTRLDVTARPNQTLPAPK
# B2: Full-length myotilin with N-terminal thioredoxin tag (Trx-MYOT), Q9UBF9 1-498 (natural protein)
# chain: T1 chain
# B3: Myotilin Ig1Ig2^250–444 (Ig1Ig2 tandem), Q9UBF9 250-444 (domain or fragment)
# chain: T2 chain
# B4: Myotilin Ig1Ig2^220–452 (domain or fragment, UniProt Q9UBF9 220-452)
# chain: B1 chain with K186R
# Key:
# [1] = target: Myotilin Ig1Ig2^(220–452 R405K) (human) (UniProt Q9UBF9); assay: SAXS; batch SAXS at high or comparable concentrations; Ig1Ig2^250–444 up to 14.12 mg/ml, Ig1Ig2^250–498 up to 42.8 mg/ml, Ig1Ig2^220–452 up to 52 or 36.6 mg/ml, R405K up to 45.5 mg/ml; 20 mM HEPES, 150 mM NaCl, 5% glycerol, 1 mM DTT, pH 7.4 (one 220–452 set in 20 mM MES, 200 mM NaCl, pH 6.0); mass from I0, Rg, Dmax, P(r); monomer to dimer; both …
# [2] = target: T1, Full-length myotilin with N-terminal …; assay: SEC-SAXS with RALLS; Superdex 200 increase 10/300, 20 mM Tris, 400 mM NaCl, 250 mM arginine, 5% glycerol, pH 7.5; molecular mass from RI/RALLS and from SAXS; only low concentrations of Trx-MYOT; both purified; conditions: remark: other sources report otherwise
# [3] = target: T2, Myotilin Ig1Ig2^250–444 (Ig1Ig2 tandem) …; assay: SAXS; batch SAXS at high or comparable concentrations; Ig1Ig2^250–444 up to 14.12 mg/ml, Ig1Ig2^250–498 up to 42.8 mg/ml, Ig1Ig2^220–452 up to 52 or 36.6 mg/ml, R405K up to 45.5 mg/ml; 20 mM HEPES, 150 mM NaCl, 5% glycerol, 1 mM DTT, pH 7.4 (one 220–452 set in 20 mM MES, 200 mM NaCl, pH 6.0); mass from I0, Rg, Dmax, P(r); monomer to dimer; both …; conditions: remark: other sources report otherwise
# [4] = target: Myotilin Ig1Ig2^220–452 (human) (UniProt Q9UBF9); assay: SAXS; batch SAXS, low end of the concentration series of Ig1Ig2^220–452 (series from 1 or 2.1 mg/ml); both purified
binder,measurement,setting,value
B1,binding,[1],binds weakly
B2,binding,[2],no binding
B3,binding,[3],no binding (tested: up to 14.12 mg/ml)
B4,binding,[4],no binding (condition: at low concentrations)
